Assay results: PMC9411159
Results are given in words; binding and its absence hold for the method and conditions named. In cells and extracts the contact can be indirect. These calls come from enrichment with a bait or labelling near it, and not all partners need be listed.

Molecular target: T1, AT-rich interacting domain 3A (ARID3A) (human (endogenous in Huh7)) (UniProt Q99856)
T1 sequence: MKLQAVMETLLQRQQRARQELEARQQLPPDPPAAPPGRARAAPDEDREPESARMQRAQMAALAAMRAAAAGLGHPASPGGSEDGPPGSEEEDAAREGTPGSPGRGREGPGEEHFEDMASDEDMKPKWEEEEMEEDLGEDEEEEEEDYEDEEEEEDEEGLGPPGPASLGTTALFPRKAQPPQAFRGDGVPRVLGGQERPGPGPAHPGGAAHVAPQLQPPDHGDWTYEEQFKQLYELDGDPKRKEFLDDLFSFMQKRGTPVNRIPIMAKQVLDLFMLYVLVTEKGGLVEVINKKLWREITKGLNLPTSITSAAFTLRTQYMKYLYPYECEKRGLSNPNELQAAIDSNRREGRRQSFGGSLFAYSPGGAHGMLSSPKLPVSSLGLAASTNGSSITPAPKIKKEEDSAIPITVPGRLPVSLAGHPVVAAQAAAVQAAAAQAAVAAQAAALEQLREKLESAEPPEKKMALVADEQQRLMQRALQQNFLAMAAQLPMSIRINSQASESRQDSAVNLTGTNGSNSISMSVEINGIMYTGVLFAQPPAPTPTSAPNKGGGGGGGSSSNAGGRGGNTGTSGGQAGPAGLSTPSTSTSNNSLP
Experiment: affinity purification with mass spectrometry; Co-IP of ARID3A followed by LC-MS in Huh7 cells; IgG control; hits had more than 1 unique peptide and no IgG-specific peptides

binding: binds
B1: centrosomal protein 131 kDa (CEP131) (protein, UniProt Q9UPN4 1-1083)
chain: MKGTRAIGSVPERSPAGVDLSLTGLPPPVSRRPGSAATTKPIVRSVSVVTGSEQKRKVLEATGPGGSQAINNLRRSNSTTQVSQPRSGSPRPTEPTDFLMLFEGSPSGKKRPASLSTAPSEKGATWNVLDDQPRGFTLPSNARSSSALDSPAGPRRKECTVALAPNFTANNRSNKGAVGNCVTTMVHNRYTPSERAPPLKSSNQTAPSLNNIIKAATCEGSESSGFGKLPKNVSSATHSARNNTGGSTGLPRRKEVTEEEAERFIHQVNQATVTIQRWYRHQVQRRGAGAARLEHLLQAKREEQRQRSGEGTLLDLHQQKEAARRKAREEKARQARRAAIQELQQKRALRAQKASTAERGPPENPRETRVPGMRQPAQELSPTPGGTAHQALKANNTGGGLPAAGPGDRCLPTSDSSPEPQQPPEDRTQDVLAQDAAGDNLEMMAPSRGSAKSRGPLEELLHTLQLLEKEPDVLPRPRTHHRGRYAWASEVTTEDDASSLTADNLEKFGKLSAFPEPPEDGTLLSEAKLQSIMSFLDEMEKSGQDQLDSQQEGWVPEAGPGPLELGSEVSTSVMRLKLEVEEKKQAMLLLQRALAQQRDLTARRVKETEKALSRQLQRQREHYEATIQRHLAFIDQLIEDKKVLSEKCEAVVAELKQEDQRCTERVAQAQAQHELEIKKLKELMSATEKARREKWISEKTKKIKEVTVRGLEPEIQKLIARHKQEVRRLKSLHEAELLQSDERASQRCLRQAEELREQLEREKEALGQQERERARQRFQQHLEQEQWALQQQRQRLYSEVAEERERLGQQAARQRAELEELRQQLEESSSALTRALRAEFEKGREEQERRHQMELNTLKQQLELERQAWEAGRTRKEEAWLLNREQELREEIRKGRDKEIELVIHRLEADMALAKEESEKAAESRIKRLRDKYEAELSELEQSERKLQERCSELKGQLGEAEGENLRLQGLVRQKERALEDAQAVNEQLSSERSNLAQVIRQEFEDRLAASEEETRQAKAELATLQARQQLELEEVHRRVKTALARKEEAVSSLRTQHEAAVKRADHLEELLEQHRRPTPSTK
